Data as given in PubChem BioAssay AID540276 (National Center for Advancing Translational Sciences (NCATS), 2011).
“And” between values parts separate entries of the source, which are not always exact repeats. Identical values can stand only once. The campaign covered roughly 300,000 compounds. About 5,400 (1.8%) were called active. The inconclusive results got no clear call from the source; some entries with a clear call stand among them for comparison. Calls come from the whole dose curve; tested in HEK293 cells. Potencies beside an inconclusive call are fits to weak or partial responses and may not hold up.

Assay: qHTS for inhibitors of binding or entry into cells for Marburg Virus
Conditions: Marburg virus pseudotyped entry inhibition, cell reporter; series mostly up to 37.8 µM
Potency is the fitted concentration of half-maximal effect.

**Q.** With COc1cccc(/C=C2\Oc3ccc(O)cc3C2=O)c1O as the molecule, how does the Potency read?
**A.** The Potency was inconclusive: 2.82 µM [inhibitor, full curve, poor fit].

**Q.** Which Potency does the source give for Cc1ccc(C(=O)N/C(=C\c2cccs2)C(=O)NC2CCCCC2)cc1 here?
**A.** Its Potency is inconclusive: 0.126 µM [inhibitor, full curve, poor fit].

**Q.** For CC1CCN(c2cc(N3CCC(C)CC3)c([N+](=O)[O-])cc2/C=C(\C#N)c2nn(-c3ccccc3)c(N)c2C#N)CC1, which Potency is on record?
**A.** The Potency was inconclusive: 35.5 µM [inhibitor, partial curve, poor fit].

**Q.** For Cc1cc(-c2csc(NC(=O)c3ccc(=O)[nH]c3)n2)c(C)n1Cc1ccco1, which Potency is on record?
**A.** Its Potency is “inactive”.

**Q.** For CC1CN(C(=O)C(Sc2ccccc2)c2ccccc2)CC(C)O1 (stereo unspecified), which Potency is on record?
**A.** The Potency was inconclusive: 6.31 µM [activator, partial curve, poor fit].

**Q.** For Cc1cc(CNC(=O)COc2cc(F)ccc2[N+](=O)[O-])c2ccccc2n1, which Potency is on record?
**A.** Its Potency is inconclusive: 4.47 µM [inhibitor, full curve, poor fit].

**Q.** For CN(C)C(=S)SCC(=O)NCc1ccc(F)cc1, which Potency is on record?
**A.** Its Potency is inconclusive: 17.8 µM [activator, single point].

**Q.** With C(=N\N=C\c1cccnc1)/c1cccnc1 as the molecule, how does the Potency read?
**A.** Its Potency is inconclusive: 3.26 µM [inhibitor, partial curve, poor fit].

**Q.** For Cc1ccc(-c2nnc(N3CCN(C(=O)CSc4ncn[nH]4)CC3)c3ccccc23)cc1, which Potency is on record?
**A.** Its Potency is “inactive”.

**Q.** With CC(C)NC(=O)C(=O)NCCCN1CCOCC1 as the molecule, how does the Potency read?
**A.** The Potency was “inactive”.

**Q.** With Cc1ccc(-c2cc(N)n(-c3ccc(F)cc3)n2)cc1 as the molecule, how does the Potency read?
**A.** Its Potency is inconclusive: 14.1 µM [activator, single point].

**Q.** For COc1ccc(S(=O)(=O)N2CCN(c3ccccc3)CC2)cc1OC, which Potency is on record?
**A.** The Potency was inconclusive: 3.16 µM [activator, single point].

**Q.** Which Potency does the source give for COc1ccc(N(C)C(=O)c2cn(C3CCCCC3)c(=O)c3c2c2ccccc2n3C)cc1 here?
**A.** The Potency was inconclusive: 31.6 µM [inhibitor, single point].

**Q.** With CCOC(=O)C1=C(C)NC2=C(C(=O)c3ccccc32)C1c1cccc2ccccc12 (stereo unspecified) as the molecule, how does the Potency read?
**A.** The Potency was inconclusive: 35.5 µM [inhibitor, single point].

**Q.** With COc1ccc(CCCc2nnc(SCc3nc4ccccc4c(=O)[nH]3)n2C)c(C)c1 as the molecule, how does the Potency read?
**A.** The Potency was “inactive”.

**Q.** With COc1ccc(Br)cc1CN(C)C(C)C(=O)Nc1cccc(C(C)=O)c1 (stereo unspecified) as the molecule, how does the Potency read?
**A.** Its Potency is inconclusive: 13 µM [inhibitor, partial curve, poor fit].

**Q.** Which Potency does the source give for CCOc1ccc(NC(=O)CSc2nnc(C3CC3)n2C2CC2)cc1 here?
**A.** The Potency was inconclusive: 1.26 µM [inhibitor, partial curve, poor fit].

**Q.** Which Potency does the source give for C/C(=N/NC(=O)c1ccc(Br)o1)c1cccc(NC(=O)c2ccc(C)o2)c1 here?
**A.** The Potency was “inactive”.

**Q.** For Cc1ccccc1-c1nnc(SCc2ccccc2)o1, which Potency is on record?
**A.** Its Potency is inconclusive: 0.291 µM [activator, full curve, poor fit].

**Q.** Which Potency does the source give for Cc1cc(=O)n2nc(N3CCCC(C(=O)NCCCN4CCc5ccccc5C4)C3)sc2n1 (stereo unspecified) here?
**A.** Its Potency is inconclusive: 6.31 µM [inhibitor, single point].

**Q.** With COc1ccc(-c2csc3ncnc(N4CCN(c5ccccc5O)CC4)c23)cc1 as the molecule, how does the Potency read?
**A.** The Potency was inconclusive: 35.5 µM [inhibitor, single point].

**Q.** For CC(=O)Nc1sc(-c2ccc(Cl)cc2)nc1-c1ccccc1, which Potency is on record?
**A.** The Potency was “inactive”.

**Q.** For C/C(=N\Nc1ccc2nncn2n1)c1ccccn1, which Potency is on record?
**A.** The Potency was inconclusive: 3.16 µM [inhibitor, full curve, poor fit].

**Q.** For Cc1c(C)c2ccc(OCc3ccc(C(=O)O)o3)c(C)c2oc1=O, which Potency is on record?
**A.** Its Potency is inconclusive: 8.2 µM [inhibitor, partial curve, poor fit].

**Q.** With CC(NC(=O)c1ccc2c(c1)CCN2S(=O)(=O)c1ccc(Cl)cc1)c1ccccc1 (stereo unspecified) as the molecule, how does the Potency read?
**A.** Its Potency is inconclusive: 35.5 µM [inhibitor, single point].

**Q.** For CCOc1ccc(NC(=O)CSc2nc3c(oc4ccccc43)c(=O)n2-c2ccccc2C)cc1, which Potency is on record?
**A.** The Potency was inconclusive: 5.01 µM [inhibitor, partial curve].

**Q.** With Cn1c(=O)[nH]c(=O)c2c1nc([N+](=O)[O-])n2Cc1ccccc1 as the molecule, how does the Potency read?
**A.** Its Potency is inconclusive: 1 µM [inhibitor, full curve, poor fit].

**Q.** For O=C(COC(=O)c1cccc2ccccc12)Nc1cccnc1Cl, which Potency is on record?
**A.** Its Potency is inconclusive: 1.26 µM [inhibitor, partial curve, poor fit].

**Q.** For CCCCc1ccc(NC(=O)c2cc3c(=O)n4ccccc4nc3s2)cc1, which Potency is on record?
**A.** Its Potency is “inactive”.

**Q.** For Nc1nccc(/C=C/c2c(Cl)cccc2Cl)n1, which Potency is on record?
**A.** The Potency was inconclusive: 11.2 µM [inhibitor, partial curve, poor fit].

**Q.** For COc1ccc(N2CCCn3c2nc2c3c(=O)n(CCc3ccccc3)c(=O)n2C)cc1, which Potency is on record?
**A.** Its Potency is “inactive”.

**Q.** With COc1ccc(Cc2nnc(NS(=O)(=O)c3ccc(Cl)cc3)s2)cc1OC as the molecule, how does the Potency read?
**A.** Its Potency is inconclusive: 14.1 µM [activator, single point].

**Q.** For COc1ccccc1-c1nnc(SCC(=O)c2ccc(Cl)cc2)n1-c1ccccc1, which Potency is on record?
**A.** The Potency was inconclusive: 25.1 µM [inhibitor, partial curve, poor fit].

**Q.** Which Potency does the source give for Cc1nn(-c2ccccc2)c2c1C1(C(=O)N3c4c(cccc41)C(C)CC3(C)C)C(C#N)=C(N)O2 (stereo unspecified) here?
**A.** The Potency was inconclusive: 25.9 µM [inhibitor, single point].

**Q.** For CCCn1c(/C=N/Nc2nc3ccccc3[nH]2)nc2ccccc21, which Potency is on record?
**A.** Its Potency is inconclusive: 3.98 µM [inhibitor, full curve, poor fit].

**Q.** With COc1ccc(NC(=O)C2SC(=S)N=C2N)cc1 (stereo unspecified) as the molecule, how does the Potency read?
**A.** The Potency was “inactive”.

**Q.** For COc1ccc(NC(=O)COc2ccc(-c3nn(C)c(=O)c4ccccc34)cc2)cc1, which Potency is on record?
**A.** Its Potency is “inactive and inconclusive: 2.82 µM [activator, partial curve, poor fit]”.

**Q.** For COc1ccc(-c2noc(-c3cc(Cl)ccc3Cl)n2)cc1OC, which Potency is on record?
**A.** Its Potency is “inactive”.

**Q.** With COc1ccccc1CNC(=O)C(NS(=O)(=O)c1cccs1)C(C)C (stereo unspecified) as the molecule, how does the Potency read?
**A.** Its Potency is inconclusive: 3.98 µM [inhibitor, partial curve, poor fit].

**Q.** For CCOC(=O)c1ccccc1NC(=O)c1cncc(Br)c1, which Potency is on record?
**A.** Its Potency is inconclusive: 0.316 µM [activator, partial curve, poor fit].

**Q.** Which Potency does the source give for Cc1noc(NS(=O)(=O)c2ccc(NC(=O)C34CC5CC(C3)CC(n3cnc(Br)n3)(C5)C4)cc2)c1C here?
**A.** Its Potency is inconclusive: 1.26 µM [inhibitor, single point].
